According to PMC8184793:
No constants are given. Whether binding was seen depends on the method and setting. In cells and extracts the contact can be indirect. Some binding calls cover weakened binding; strength is not graded here. For part of these data: Where a sequence is shown, tags or fusion partners need not be part of it. Blank lines part the entries; values can stand above or below the substance they belong to.

The chains behind the UniProt entries cited, without tags or fusion partners.
UniProt Q9Z329: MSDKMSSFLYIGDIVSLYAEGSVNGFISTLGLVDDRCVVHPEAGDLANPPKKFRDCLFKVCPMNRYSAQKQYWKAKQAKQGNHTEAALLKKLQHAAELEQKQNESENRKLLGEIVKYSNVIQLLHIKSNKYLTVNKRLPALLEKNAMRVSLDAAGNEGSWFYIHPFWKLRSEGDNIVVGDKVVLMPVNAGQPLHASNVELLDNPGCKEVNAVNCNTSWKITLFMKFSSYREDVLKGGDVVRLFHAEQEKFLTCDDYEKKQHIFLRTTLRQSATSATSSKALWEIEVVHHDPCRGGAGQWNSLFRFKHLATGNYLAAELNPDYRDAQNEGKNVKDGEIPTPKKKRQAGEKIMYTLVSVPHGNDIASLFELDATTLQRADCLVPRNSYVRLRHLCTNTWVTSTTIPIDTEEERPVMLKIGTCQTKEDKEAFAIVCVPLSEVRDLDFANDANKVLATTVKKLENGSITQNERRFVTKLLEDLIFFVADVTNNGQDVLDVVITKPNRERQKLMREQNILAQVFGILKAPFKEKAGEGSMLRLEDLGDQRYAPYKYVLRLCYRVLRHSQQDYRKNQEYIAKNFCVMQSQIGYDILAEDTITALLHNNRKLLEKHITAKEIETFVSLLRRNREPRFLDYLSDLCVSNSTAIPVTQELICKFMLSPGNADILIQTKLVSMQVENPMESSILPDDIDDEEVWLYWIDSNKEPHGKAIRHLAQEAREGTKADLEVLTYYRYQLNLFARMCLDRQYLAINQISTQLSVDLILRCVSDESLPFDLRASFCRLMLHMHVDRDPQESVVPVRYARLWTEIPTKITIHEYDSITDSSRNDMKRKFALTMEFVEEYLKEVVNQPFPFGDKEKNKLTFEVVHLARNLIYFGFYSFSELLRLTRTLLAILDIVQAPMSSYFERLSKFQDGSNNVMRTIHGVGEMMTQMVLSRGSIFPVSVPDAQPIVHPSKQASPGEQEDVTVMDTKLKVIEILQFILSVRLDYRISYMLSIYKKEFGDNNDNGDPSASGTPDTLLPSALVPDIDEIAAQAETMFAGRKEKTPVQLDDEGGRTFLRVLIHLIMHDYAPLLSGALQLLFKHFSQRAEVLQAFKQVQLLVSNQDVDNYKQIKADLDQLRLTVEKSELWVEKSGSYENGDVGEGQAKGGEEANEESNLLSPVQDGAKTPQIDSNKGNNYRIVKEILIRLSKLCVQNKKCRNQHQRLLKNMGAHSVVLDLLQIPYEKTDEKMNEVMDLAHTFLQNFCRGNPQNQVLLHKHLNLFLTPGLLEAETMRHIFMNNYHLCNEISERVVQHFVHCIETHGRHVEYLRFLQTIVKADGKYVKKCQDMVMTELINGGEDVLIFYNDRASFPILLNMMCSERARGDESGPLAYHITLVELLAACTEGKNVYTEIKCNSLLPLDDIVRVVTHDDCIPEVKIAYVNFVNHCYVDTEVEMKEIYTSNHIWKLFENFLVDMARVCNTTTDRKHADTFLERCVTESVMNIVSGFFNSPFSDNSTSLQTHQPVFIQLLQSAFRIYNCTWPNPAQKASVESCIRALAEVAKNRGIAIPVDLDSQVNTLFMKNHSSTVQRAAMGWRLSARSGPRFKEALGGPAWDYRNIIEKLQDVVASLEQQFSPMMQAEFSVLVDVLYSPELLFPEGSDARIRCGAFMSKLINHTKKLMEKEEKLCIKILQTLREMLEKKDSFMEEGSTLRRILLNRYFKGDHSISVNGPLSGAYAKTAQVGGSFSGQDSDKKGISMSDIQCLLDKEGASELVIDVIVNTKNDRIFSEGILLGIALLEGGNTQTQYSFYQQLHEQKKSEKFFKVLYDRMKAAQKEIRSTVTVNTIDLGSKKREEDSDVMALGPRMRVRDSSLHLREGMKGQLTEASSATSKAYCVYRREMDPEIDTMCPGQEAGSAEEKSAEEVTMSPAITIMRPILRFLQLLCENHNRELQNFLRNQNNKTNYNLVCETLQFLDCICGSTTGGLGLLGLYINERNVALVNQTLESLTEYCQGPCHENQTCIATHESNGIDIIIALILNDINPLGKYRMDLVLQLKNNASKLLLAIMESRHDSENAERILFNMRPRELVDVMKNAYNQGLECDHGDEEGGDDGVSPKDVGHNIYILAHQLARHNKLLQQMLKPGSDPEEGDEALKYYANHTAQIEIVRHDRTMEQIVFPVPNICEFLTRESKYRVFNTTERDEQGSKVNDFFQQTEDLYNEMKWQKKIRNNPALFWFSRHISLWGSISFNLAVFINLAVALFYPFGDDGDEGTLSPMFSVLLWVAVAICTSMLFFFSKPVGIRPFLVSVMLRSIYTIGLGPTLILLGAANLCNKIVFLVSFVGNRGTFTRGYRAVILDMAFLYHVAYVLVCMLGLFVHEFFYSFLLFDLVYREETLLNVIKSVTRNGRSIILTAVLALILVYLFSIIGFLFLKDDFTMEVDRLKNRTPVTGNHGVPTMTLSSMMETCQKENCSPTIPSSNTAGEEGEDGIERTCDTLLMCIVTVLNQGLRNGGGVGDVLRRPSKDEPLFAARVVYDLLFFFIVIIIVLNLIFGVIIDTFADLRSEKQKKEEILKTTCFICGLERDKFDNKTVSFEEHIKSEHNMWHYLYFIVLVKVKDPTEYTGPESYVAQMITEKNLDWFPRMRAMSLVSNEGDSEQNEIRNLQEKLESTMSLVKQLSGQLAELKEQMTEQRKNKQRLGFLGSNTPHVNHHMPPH

Legend:
[1] = target: T1, full-length Lrmp-Flag (mouse) (UniProt Q60664); test: co-IP; H1299 cells co-transfected with Flag-tagged Lrmp (full length or deletion mutants) and ITPR2-HA; anti-Flag and anti-HA agarose beads, Western blot
T1 sequence: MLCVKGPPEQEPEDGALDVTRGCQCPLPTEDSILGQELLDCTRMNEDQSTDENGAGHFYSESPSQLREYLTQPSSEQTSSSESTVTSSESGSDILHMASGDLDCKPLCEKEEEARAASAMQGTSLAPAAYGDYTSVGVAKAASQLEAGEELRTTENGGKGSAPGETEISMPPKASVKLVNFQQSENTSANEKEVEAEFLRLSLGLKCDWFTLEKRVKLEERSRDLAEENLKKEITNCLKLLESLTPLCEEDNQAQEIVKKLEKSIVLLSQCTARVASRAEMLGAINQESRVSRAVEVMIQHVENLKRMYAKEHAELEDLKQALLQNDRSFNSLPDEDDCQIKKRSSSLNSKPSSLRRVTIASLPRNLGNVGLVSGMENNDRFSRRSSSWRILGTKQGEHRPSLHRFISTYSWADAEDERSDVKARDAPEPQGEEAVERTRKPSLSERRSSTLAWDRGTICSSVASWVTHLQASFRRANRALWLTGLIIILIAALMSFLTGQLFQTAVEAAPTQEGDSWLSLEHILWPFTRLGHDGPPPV

[2] = target: T2, Lrmp (mouse (endogenous in small intestinal tissue)) (UniProt Q60664); test: proximity ligation; in situ Duolink PLA on FFPE sections of mouse small intestine with anti-Lrmp and anti-ITPR2 antibodies; tuft cells identified by Dclk1 staining; Lrmp-/- tissue as control
T2 sequence: T1 sequence

Lrmp-Flag (mouse) = target: T3, Lrmp-Flag (mouse) (UniProt Q60664); test: co-IP; MEFs co-transfected with Lrmp-Flag and ITPR2-HA; co-IP with an anti-Flag antibody, Western blot
T3 sequence: T1 sequence

- binding [1]: binds
Substance: WT ITPR2-HA (from UniProt Q9Z329 1-2701) (receptor)

- binding [2]: binds
Substance: ITPR2 (from UniProt Q9Z329 1-2701) (receptor)

- binding (Lrmp-Flag (mouse)): binds
Substance: ITPR2-HA (from UniProt Q9Z329 1-2701) (receptor)
